# US20060257867
# The chains behind the UniProt entries cited, without tags or fusion partners. Where a name states a change or a piece, a line headed by the entry shows the natural chain unless it says otherwise.
# UniProt Q9QYH7: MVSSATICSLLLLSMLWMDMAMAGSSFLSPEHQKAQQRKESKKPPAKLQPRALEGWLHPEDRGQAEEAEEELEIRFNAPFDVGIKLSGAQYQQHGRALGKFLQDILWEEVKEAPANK
# Biological target: T1, ghrelin (L-enantiomer, rat) (Rattus norvegicus) (UniProt Q9QYH7)
# T1 sequence: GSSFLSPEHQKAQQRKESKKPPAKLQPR
# Assay: SPR
# Conditions: L-RNA; synthetic protein; synthetic backbone; mirror-image nucleic acid; variant of B11
sequence,measurement,value
CGUGUGAGGCAAUAAAACUUAAGUCCGAAGGUAACCAAUCCUACACG [B11trc Spiegelmer / NOX-SOT-C (B11)],binding result,binds

# The exact form of at least one protein or probe is not confirmed. Tags and fusion partners may be left off the protein sequences shown.
